Reference: US4308218A, “Aryl phosphonites and thiophosphonites useful as antioxidants” (priority 1977, dated 1981)

Experiment: melt flow index determination of stabilised polypropylene (ASTM D-1238-70)
Conditions: 0.2% of compound in base-stabilized polypropylene, mixed at 170° for 5 minutes

CN(C)c1ccc(P(Oc2ccc(C(C)(C)C)cc2C(C)(C)C)Oc2ccc(C(C)(C)C)cc2C(C)(C)C)cc1 [Example 1]
Melt flow Index at 2.16 Kp/230°: 3.1

Cc1ccc(OP(Oc2ccc(C)cc2C(C)(C)C)c2ccc(N(C)C)cc2)c(C(C)(C)C)c1 [Example 2]
Melt flow Index at 2.16 Kp/230°: 3.0
